According to patent US20160046678A1 (ZYNGENIA, published 2016):
Results are given in words; binding and its absence hold for the method and conditions named. Some entries that bind do so weakly or less than the wild type.

The chains behind the UniProt entries cited, without tags or fusion partners. Residues count along the entry.
UniProt P21860, residues 20-643: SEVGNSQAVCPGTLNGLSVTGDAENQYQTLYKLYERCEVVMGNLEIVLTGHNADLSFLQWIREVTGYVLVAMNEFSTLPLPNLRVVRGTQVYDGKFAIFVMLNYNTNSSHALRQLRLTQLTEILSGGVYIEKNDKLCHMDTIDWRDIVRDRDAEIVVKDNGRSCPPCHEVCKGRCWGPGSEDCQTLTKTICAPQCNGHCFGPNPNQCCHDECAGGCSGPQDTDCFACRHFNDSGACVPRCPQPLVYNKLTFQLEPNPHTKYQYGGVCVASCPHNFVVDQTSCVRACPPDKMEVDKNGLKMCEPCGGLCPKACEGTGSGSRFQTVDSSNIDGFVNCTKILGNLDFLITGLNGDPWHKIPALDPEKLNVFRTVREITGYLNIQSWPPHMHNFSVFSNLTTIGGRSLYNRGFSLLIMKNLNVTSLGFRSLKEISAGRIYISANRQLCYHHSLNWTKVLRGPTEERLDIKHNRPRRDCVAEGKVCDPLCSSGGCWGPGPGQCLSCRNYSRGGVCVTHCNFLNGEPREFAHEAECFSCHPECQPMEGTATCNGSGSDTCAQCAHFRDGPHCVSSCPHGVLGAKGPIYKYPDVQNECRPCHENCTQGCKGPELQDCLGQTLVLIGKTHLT

B1: EGC176 (peptide)
peptide: GFFMCQVYPSEKWHVCLETL
B2: EGC177 (peptide)
peptide: GFIMCQVYPSLKWHVCVETS
B3: EGC178 (peptide)
peptide: KFFMCQIYPSEKWHVCVKLW
B4: EGC181 (peptide)
peptide: AASLCPFQNPIWLAHCMEMM
B5: EGC182 (peptide)
peptide: SKVYCPFQNPIWWSHCMELI
B6: EGC183 (peptide)
peptide: SQAYCPFQNPIWWNHCMELI
B7: EGC185 (peptide)
peptide: HLFLCQVYPSEKWHVCVETL
B8: EGC186 (peptide)
peptide: KFRMCQVYPSGKWHVCAETF
B9: EGC187 (peptide)
peptide: KFFLCQVYPSGKYHICVSTW
B10: EGC189 (peptide)
peptide: KFYMCQVYPSVRWHVCVDTS
B11: EGC191 (peptide)
peptide: TREICPFQNPIWRSHCLKLV
B12: EGC192 (peptide)
peptide: PMVRCPFKNPVWYSHCLELL
B13: EGC196 (peptide)
peptide: TFFMCQVYPSGKWHVCVGGL
B14: EGC197 (peptide)
peptide: KFFLCQVYPSEKWHVCIERL
B15: EGC198 (peptide)
peptide: RYQMCQVYPSGKWHVCMETI
B16: EGC199 (peptide)
peptide: RFQMCKVYPSERWHVCVEIL
B17: EGC222 (peptide)
peptide: WCTECMRRFPGHYCVAFC
B18: EGC223 (peptide)
peptide: RAASCLDVFHWCHSWC
B19: EGC224 (peptide)
peptide: CLSRCVDWVFSNCTSGR
B20: EGC225 (peptide)
peptide: FLMLCHVSKYTIKCFSPL
B21: EGC226 (peptide)
peptide: WALACSWTPRWHQCIFSL
B22: EGC227 (peptide)
peptide: LERLCMEIFYVHCSGSI
B23: EGC228 (peptide)
peptide: SWRMCIEMFLTHDECVRFV
B24: EGC229 (peptide)
peptide: SSVVCVRGIHAWTCHFFV
B25: EGC232 (peptide)
peptide: LTSSCVYVYNWCAVWA
B26: EGC233 (peptide)
peptide: YRHLCVWLMEQCETAR
B27: EGC234 (peptide)
peptide: RAASCLDVFHCRRSWS
B28: EGC236 (peptide)
peptide: HVSICWGYTYCWQIF
B29: EGC237 (peptide)
peptide: RGASCLDLFHWCHSWG
B30: EGC238 (peptide)
peptide: IYILCTNFKPVFWCVFST
B31: EGC239 (peptide)
peptide: LWIRCSLLQYSYYCSWVW
B32: EGC242 (peptide)
peptide: SYLFCYTLYIDYNCWLWS
B33: EGC243 (peptide)
peptide: PGYRCVFQVNYQCGAAF
B34: EGC244 (peptide)
peptide: TIIRCFWTFHMDFVCVTGV
B35: EGC245 (peptide)
peptide: WLNCGCVVITCIVEPR
B36: EGC246 (peptide)
peptide: WGWRCYQSWSYQDCQYWY
B37: EGC248 (peptide)
peptide: FLMLCRVSKYTIKCFSPL
B38: EGC250 (peptide)
peptide: RGRDCLRSFPGHYCVTFR
B39: EGC251 (peptide)
peptide: LNYICWRWAHQVPWQCSLFQ
B40: EGC252 (peptide)
peptide: ASYSCWWGPMYMECWTKV
B41: EGC253 (peptide)
peptide: KTGSCQAQKVFSWCAQWC
B42: EGC254 (peptide)
peptide: KFFMCQVYPSLKWHVCMETL
B43: EGC255 (peptide)
peptide: KFMMCQVYPSLKWHVCVETL
B44: EGC256 (peptide)
peptide: VEHLCSKIPFWHVQCLARF
B45: EGC259 (peptide)
peptide: KFLMCQVYPSLKWHVCMETL
B46: EGC263 (peptide)
peptide: QFLMCQVYPSLKWHVCVETL
B47: EGC264 (peptide)
peptide: QFMLCQVYPSKKWHVCVVPV
B48: EGC265 (peptide)
peptide: GSCALKNRSKCARRG
B49: EGC266 (peptide)
peptide: KFQMCQVYPSGNWHVCVETM
B50: EGC267 (peptide)
peptide: RERTCVYFHKILHDFCPSRT
B51: EGC268 (peptide)
peptide: FKFTCYWAPYHTFCNTGQ
B52: EGC269 (peptide)
peptide: KFFMCQVYPSLKWHVWMETL
B53: EGC270 (peptide)
peptide: KFQCARFTLPETGMFVSKL
B54: EGC272 (peptide)
peptide: WYEQCMKRHHPQAFCLRFN
B55: EGC273 (peptide)
peptide: KFLMCQVYPSKKWHVCIETL
B56: EGC274 (peptide)
peptide: QFMLCQVYPSKKWHVCVVTV
B57: EGC276 (peptide)
peptide: CLGSCMLKGFERWCIHGH
B58: EGC277 (peptide)
peptide: KFFMCVDYPSLKWDVCMETL
B59: EGC278 (peptide)
peptide: RFFMCVDYPSIKWDVCPETI
B60: EGC280 (peptide)
peptide: PRWTCEWYQARQSCSLGQ
B61: EGC281 (peptide)
peptide: KFHMCQVYPSRNWHVWVETL
B62: EGC283 (peptide)
peptide: VEHLCSEIPFWNVQCLARF
B63: EGC284 (peptide)
peptide: KLFLCQVYPSERWHVCVESL
B64: EGC285 (peptide)
peptide: HLIMCQVYPSGKWHVCLATT
B65: EGC286 (peptide)
peptide: AVELCFHHTQEWTYCLWRF
B66: EGC287 (peptide)
peptide: GEQLCSKIPSSDALWWVRLL
B67: EGC288 (peptide)
peptide: DALRCFEWVKRNCLLSS
B68: EGC289 (peptide)
peptide: KFMMCQVYPSQKWHVCVETF
B69: EGC291 (peptide)
peptide: VEHLCSKIPFWHVQCLARI

Target: ErbB3 (UniProt P21860)
Test: MRD screen, Example 48

Question: For B1, which binding is on record?
Answer: Its binding is “binds”.

Question: Which binding does the source give for B2 here?
Answer: Its binding is “binds”.

Question: How did the binding turn out when B3 was run?
Answer: Its binding is “binds”.

Question: For B4, which binding is on record?
Answer: Its binding is “binds”.

Question: For B5, which binding is on record?
Answer: The binding was “binds”.

Question: B6 was tested. Which binding did it give?
Answer: Its binding is “binds”.

Question: How did the binding turn out when B7 was run?
Answer: The binding was “binds”.

Question: Which binding does the source give for B8 here?
Answer: Its binding is “binds”.

Question: With B9 as the binder, how does the binding read?
Answer: Its binding is “binds”.

Question: B10 was tested. Which binding did it give?
Answer: Its binding is “binds”.

Question: B11 was tested. Which binding did it give?
Answer: Its binding is “binds”.

Question: Which binding does the source give for B12 here?
Answer: The binding was “binds”.

Question: How did the binding turn out when B13 was run?
Answer: Its binding is “binds”.

Question: Which binding does the source give for B14 here?
Answer: Its binding is “binds”.

Question: How did the binding turn out when B15 was run?
Answer: Its binding is “binds”.

Question: Which binding does the source give for B16 here?
Answer: Its binding is “binds”.

Question: Which binding does the source give for B17 here?
Answer: Its binding is “binds”.

Question: For B18, which binding is on record?
Answer: The binding was “binds”.

Question: With B19 as the binder, how does the binding read?
Answer: The binding was “binds”.

Question: B20 was tested. Which binding did it give?
Answer: Its binding is “binds”.

Question: How did the binding turn out when B21 was run?
Answer: Its binding is “binds”.

Question: With B22 as the binder, how does the binding read?
Answer: The binding was “binds”.

Question: How did the binding turn out when B23 was run?
Answer: The binding was “binds”.

Question: With B24 as the binder, how does the binding read?
Answer: Its binding is “binds”.

Question: For B25, which binding is on record?
Answer: The binding was “binds”.

Question: B26 was tested. Which binding did it give?
Answer: Its binding is “binds”.

Question: Which binding does the source give for B27 here?
Answer: Its binding is “binds”.

Question: B28 was tested. Which binding did it give?
Answer: Its binding is “binds”.

Question: Which binding does the source give for B29 here?
Answer: The binding was “binds”.

Question: With B30 as the binder, how does the binding read?
Answer: Its binding is “binds”.

Question: Which binding does the source give for B31 here?
Answer: Its binding is “binds”.

Question: Which binding does the source give for B32 here?
Answer: Its binding is “binds”.

Question: B33 was tested. Which binding did it give?
Answer: Its binding is “binds”.

Question: With B34 as the binder, how does the binding read?
Answer: Its binding is “binds”.

Question: With B35 as the binder, how does the binding read?
Answer: The binding was “binds”.

Question: For B36, which binding is on record?
Answer: The binding was “binds”.

Question: For B37, which binding is on record?
Answer: The binding was “binds”.

Question: For B38, which binding is on record?
Answer: The binding was “binds”.

Question: Which binding does the source give for B39 here?
Answer: The binding was “binds”.

Question: B40 was tested. Which binding did it give?
Answer: The binding was “binds”.

Question: For B41, which binding is on record?
Answer: The binding was “binds”.

Question: For B42, which binding is on record?
Answer: Its binding is “binds”.

Question: How did the binding turn out when B43 was run?
Answer: The binding was “binds”.

Question: For B44, which binding is on record?
Answer: The binding was “binds”.

Question: B45 was tested. Which binding did it give?
Answer: Its binding is “binds”.

Question: For B46, which binding is on record?
Answer: The binding was “binds”.

Question: For B47, which binding is on record?
Answer: Its binding is “binds”.

Question: For B48, which binding is on record?
Answer: Its binding is “binds”.

Question: How did the binding turn out when B49 was run?
Answer: Its binding is “binds”.

Question: B50 was tested. Which binding did it give?
Answer: The binding was “binds”.

Question: Which binding does the source give for B51 here?
Answer: The binding was “binds”.

Question: For B52, which binding is on record?
Answer: Its binding is “binds”.

Question: Which binding does the source give for B53 here?
Answer: Its binding is “binds”.

Question: Which binding does the source give for B54 here?
Answer: The binding was “binds”.

Question: Which binding does the source give for B55 here?
Answer: Its binding is “binds”.

Question: B56 was tested. Which binding did it give?
Answer: The binding was “binds”.

Question: How did the binding turn out when B57 was run?
Answer: Its binding is “binds”.

Question: With B58 as the binder, how does the binding read?
Answer: The binding was “binds”.

Question: Which binding does the source give for B59 here?
Answer: Its binding is “binds”.

Question: How did the binding turn out when B60 was run?
Answer: The binding was “binds”.

Question: Which binding does the source give for B61 here?
Answer: Its binding is “binds”.

Question: For B62, which binding is on record?
Answer: Its binding is “binds”.

Question: Which binding does the source give for B63 here?
Answer: Its binding is “binds”.

Question: For B64, which binding is on record?
Answer: The binding was “binds”.

Question: With B65 as the binder, how does the binding read?
Answer: The binding was “binds”.

Question: How did the binding turn out when B66 was run?
Answer: Its binding is “binds”.

Question: Which binding does the source give for B67 here?
Answer: The binding was “binds”.

Question: For B68, which binding is on record?
Answer: Its binding is “binds”.

Question: How did the binding turn out when B69 was run?
Answer: Its binding is “binds”.
